# Data: patent US20240010687A1 (University of Washington, published 2024)
# Results are given in words; binding and its absence hold for the method and conditions named. Some binding calls cover weakened binding; strength is not graded here.
# T1: C5C3_2412_Axle (C5-C3)
# T1 sequence: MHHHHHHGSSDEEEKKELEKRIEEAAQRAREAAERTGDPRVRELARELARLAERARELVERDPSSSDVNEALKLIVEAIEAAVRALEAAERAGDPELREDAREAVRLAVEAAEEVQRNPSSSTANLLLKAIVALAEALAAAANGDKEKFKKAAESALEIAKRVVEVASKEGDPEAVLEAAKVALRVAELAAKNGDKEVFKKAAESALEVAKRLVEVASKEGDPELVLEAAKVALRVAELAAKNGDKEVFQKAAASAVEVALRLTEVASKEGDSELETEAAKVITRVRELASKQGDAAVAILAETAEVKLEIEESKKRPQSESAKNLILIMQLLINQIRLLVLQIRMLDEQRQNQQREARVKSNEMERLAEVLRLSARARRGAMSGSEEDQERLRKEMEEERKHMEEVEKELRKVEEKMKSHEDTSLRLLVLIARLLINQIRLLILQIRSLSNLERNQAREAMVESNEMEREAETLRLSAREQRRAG
# Target: T1, C5C3_2412_Axle (C5-C3)
# Test: SEC, SAXS, biolayer interferometry binding kinetics and negative stain EM
binder,measurement,value
C5C3_2412_Ring (C5-C3) (designed binder) MGDRSGHAKKLKTHLENLRRHLDRLDKHAKQLRDILSEHPHDERVKDSIDLLEESVRIVKISIKIFEASVRALLWAINKEAEELAKSPDPEDLKRAVELAEAVVRADPGSNLSKKALEIILRAAAELAKLPDPDALAAAARAASKVQQEMPGSNLAKAAQEIMRQASRAAEEAARRAKETLEKAEKDGDPETALKAVETVVKVARALNQIATAAGSEEAQERAARVAAEAAELALRVFELAEKQGDPEVARRARELIEKVLDLLLSLLTQILQTATKVIDDSNKLLEKLRRSHHHDPKLVETHVELVKRHERLVRQHLKIALMHALAVLELAFPDAEAAKLASKAAKEAEELCKQSTDERLCDLLAELAALLIELAARYPDSEAAKLALKAALEAIELCKQSTDEELCEELVKLAQKLIELAKRYPDSEEAKRALKEAKELIEQCKESTDEDECRELVKRAEELIREAKEGSHHHHHH,binding,binds
